Source: article PMC10766965
Results are given in words; binding and its absence hold for the method and conditions named. In cells and extracts the contact can be indirect. Some entries that bind do so weakly or less than the wild type. Tags and fused reporters may be left off the sequences shown.

Sequences of proteins named here, by UniProt entry; tags and fusion partners are left off.
UniProt Q9NZ08: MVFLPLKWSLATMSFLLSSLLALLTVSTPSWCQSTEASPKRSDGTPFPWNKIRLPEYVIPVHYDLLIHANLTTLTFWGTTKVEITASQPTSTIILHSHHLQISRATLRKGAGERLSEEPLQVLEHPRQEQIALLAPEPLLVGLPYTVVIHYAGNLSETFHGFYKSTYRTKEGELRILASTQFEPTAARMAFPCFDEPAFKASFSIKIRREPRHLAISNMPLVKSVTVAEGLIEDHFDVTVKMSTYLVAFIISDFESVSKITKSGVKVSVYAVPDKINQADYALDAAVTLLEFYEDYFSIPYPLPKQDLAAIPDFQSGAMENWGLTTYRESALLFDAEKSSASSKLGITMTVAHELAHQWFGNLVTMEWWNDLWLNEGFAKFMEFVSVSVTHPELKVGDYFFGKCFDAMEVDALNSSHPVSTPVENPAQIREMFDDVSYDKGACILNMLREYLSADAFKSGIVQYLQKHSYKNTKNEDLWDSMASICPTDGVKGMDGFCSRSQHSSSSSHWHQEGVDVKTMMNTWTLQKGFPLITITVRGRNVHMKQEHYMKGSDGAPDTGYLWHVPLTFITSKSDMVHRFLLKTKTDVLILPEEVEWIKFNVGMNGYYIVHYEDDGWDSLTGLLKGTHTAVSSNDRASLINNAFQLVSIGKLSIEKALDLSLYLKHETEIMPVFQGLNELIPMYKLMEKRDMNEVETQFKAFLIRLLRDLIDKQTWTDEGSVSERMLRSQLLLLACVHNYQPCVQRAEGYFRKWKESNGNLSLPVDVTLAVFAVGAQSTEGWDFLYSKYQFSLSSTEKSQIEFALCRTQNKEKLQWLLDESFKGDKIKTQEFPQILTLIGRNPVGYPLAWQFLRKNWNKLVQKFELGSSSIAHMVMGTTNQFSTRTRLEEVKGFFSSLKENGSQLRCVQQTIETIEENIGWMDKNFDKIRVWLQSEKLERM
UniProt Q16539: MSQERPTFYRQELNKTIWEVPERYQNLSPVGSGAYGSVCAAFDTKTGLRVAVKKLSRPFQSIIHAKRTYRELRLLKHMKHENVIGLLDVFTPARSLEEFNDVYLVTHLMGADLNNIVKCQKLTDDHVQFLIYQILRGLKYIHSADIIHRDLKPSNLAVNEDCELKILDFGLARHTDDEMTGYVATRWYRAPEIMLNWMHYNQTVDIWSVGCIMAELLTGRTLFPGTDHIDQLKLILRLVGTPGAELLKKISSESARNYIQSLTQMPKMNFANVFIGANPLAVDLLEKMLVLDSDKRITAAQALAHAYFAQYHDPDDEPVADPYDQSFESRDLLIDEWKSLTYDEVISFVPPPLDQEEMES

Legend:
[1] = molecular target: T1, HA-iRhom1 (UniProt Q6PIX5); assay: co-IP; lysate of HA-iRhom1 expressing 293T cells (IP lysis buffer, protease and phosphatase inhibitors, about 1 mg protein), anti-HA magnetic beads, immunoblot
T1 sequence: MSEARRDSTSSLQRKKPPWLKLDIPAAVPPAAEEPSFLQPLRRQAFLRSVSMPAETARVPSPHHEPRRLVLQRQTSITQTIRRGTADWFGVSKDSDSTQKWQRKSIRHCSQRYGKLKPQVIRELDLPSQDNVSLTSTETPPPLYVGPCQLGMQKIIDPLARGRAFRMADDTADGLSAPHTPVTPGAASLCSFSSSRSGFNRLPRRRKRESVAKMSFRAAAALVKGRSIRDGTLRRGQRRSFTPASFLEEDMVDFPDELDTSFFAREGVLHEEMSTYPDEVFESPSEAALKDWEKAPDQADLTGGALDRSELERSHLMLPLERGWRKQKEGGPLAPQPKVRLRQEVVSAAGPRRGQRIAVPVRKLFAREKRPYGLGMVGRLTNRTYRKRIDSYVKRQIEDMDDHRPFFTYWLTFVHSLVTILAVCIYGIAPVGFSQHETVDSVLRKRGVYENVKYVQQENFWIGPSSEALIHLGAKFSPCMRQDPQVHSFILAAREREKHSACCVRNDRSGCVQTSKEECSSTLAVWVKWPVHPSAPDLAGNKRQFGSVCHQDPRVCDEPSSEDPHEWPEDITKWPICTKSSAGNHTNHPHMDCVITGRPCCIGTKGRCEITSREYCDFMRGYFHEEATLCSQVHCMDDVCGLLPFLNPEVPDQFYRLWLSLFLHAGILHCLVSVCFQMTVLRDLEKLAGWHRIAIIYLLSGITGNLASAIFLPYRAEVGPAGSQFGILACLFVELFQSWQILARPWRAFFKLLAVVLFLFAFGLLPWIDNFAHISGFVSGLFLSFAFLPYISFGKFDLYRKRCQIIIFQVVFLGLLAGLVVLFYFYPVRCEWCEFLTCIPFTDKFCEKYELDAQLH

[2] = molecular target: T1, HA-iRhom1; assay: co-IP; called 'pull-down assay' in the text; Supplementary Fig. 7, cells and bait not shown

binding [1]	binding [2]	Substance
binds	–	ERAP1 (from UniProt Q9NZ08 1-941)
binds	–	MAPK14 (from UniProt Q16539 1-360)
–	binds	p-MAPK14 (from UniProt Q16539 1-360)
